Experimental data as given in the supplement of paper PMC3334620.
In all, about 33,000 sequences were measured (“E-score (-0.5 to 0.5)”: median about -0.016, highest 2% from about 0.3 on). Some of the results follow.

target: T1, Yer184c (UniProt P39961); assay: PBM E-score (8-mer binding enrichment) (E-score (-0.5 to 0.5)); higher = stronger / more preferred TF binding; conditions: protein concentration: 100 nM; construct: GST-full length
T1 sequence: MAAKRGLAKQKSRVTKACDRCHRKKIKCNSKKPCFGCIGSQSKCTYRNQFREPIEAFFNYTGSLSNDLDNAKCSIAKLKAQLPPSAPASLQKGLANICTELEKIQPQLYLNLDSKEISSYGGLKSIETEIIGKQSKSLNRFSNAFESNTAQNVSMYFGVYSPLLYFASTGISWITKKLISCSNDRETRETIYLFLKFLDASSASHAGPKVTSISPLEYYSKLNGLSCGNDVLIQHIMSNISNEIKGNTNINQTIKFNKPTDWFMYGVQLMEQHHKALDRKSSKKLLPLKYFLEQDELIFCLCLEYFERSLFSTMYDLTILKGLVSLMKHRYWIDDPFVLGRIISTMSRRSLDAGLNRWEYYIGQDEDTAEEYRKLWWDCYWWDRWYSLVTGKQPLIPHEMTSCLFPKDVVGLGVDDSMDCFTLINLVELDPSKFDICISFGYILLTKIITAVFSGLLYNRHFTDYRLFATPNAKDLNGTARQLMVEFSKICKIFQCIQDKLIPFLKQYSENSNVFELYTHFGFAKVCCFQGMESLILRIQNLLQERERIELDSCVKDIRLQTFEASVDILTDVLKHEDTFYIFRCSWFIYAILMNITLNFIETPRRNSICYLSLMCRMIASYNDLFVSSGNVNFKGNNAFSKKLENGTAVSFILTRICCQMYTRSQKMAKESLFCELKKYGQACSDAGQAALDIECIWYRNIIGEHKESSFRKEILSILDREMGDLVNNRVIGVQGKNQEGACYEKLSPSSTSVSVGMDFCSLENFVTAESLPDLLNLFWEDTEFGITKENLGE
In short: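 Full-length yeast transcription factors or their DNA-binding domains, GST-tagged and expressed with PURExpress, were applied at about 100-200 nM to universal all-10-mer Agilent arrays. These arrays had been made double-stranded by primer extension on fresh or once-stripped slides. Detection used fluorescent anti-GST, normalisation used masliner, and E-scores for ungapped eight-base words pooled with reverse complements came from the Universal PBM Analysis Suite.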

Sequence	PBM E-score
CAGCCCTG	-0.32
CAATCCCA	-0.222
ATACATGG	-0.128
CGCTTGAA	0.157
ATTAATGA	0.233
ACGTGAGG	-0.163
ATCAGAGG	-0.0892
AAACAATC	0.195
AATTTACG	0.15
ACCAGTCG	0.0286
AAGTCGGC	-0.00472
CAGAGAAA	0.077
ATCGTGTC	0.0556
AGGCGAAT	-0.0604
GGTACGAA	0.184
GCTCACAC	-0.174
ATGCTGGG	-0.0916
GAGATGCA	-0.0644
AGGAGGAG	-0.204
CTTTGATA	0.193
CGGTGTTC	0.19
CAAAAGAA	0.188
CTCTGTGC	-0.153
CCATGCTC	-0.169

Sequence	PBM E-score
CTTGTCTC	0.0611
CAAGATTA	0.104
AAAGCCCC	-0.217
CAAAGCAG	0.0461
AGGGGCGC	-0.17
AAGGAGCC	-0.173
AAACTTTC	0.0692
ACAGGCGT	-0.283
ACTTATAT	0.224
ATCTTTAA	0.268
ATATAAAA	0.278
AGAGGCCG	-0.155
CCGGCACA	0.314
ACGGTTTA	0.0371
ACTTATCT	0.0585
ATTGATGC	0.00101
GCATAACA	-0.024
CGATCGAG	0.184
CACGAGAA	-0.08
GCGGTTAA	0.0539
GACCTAGC	-0.0926
CCATCGGA	0.0759
CTCGTGAA	-0.0324
GCTTTTAC	0.124

Sequence	PBM E-score
GTGAACGA	0.0207
ACTCTAGA	-0.0328
ATCTTGGA	0.0492
GCGGCCGC	0.261
ACACTCAT	0.0657
ACGAAGTC	-0.0791
CATGCCCA	-0.23
ACGAAAGG	0.0428
CCCTAATC	-0.152
ATAAACGA	0.302
AGCGTGTG	-0.00594
CAACGACG	-0.0442
CTGAATCA	-0.0638
GCATGGAC	-0.142
CAGACCGG	0.155
CGAGACAC	-0.0978
GTTGTTTA	0.0968
AGGCCAAC	-0.0363
AAAGCCGT	0.262
CTGAATGA	0.0973
GCACGGGC	-0.128
ATCTTTTA	0.0257
AACCGTTG	0.0405
CGTGGACA	-0.0399

Sequence	PBM E-score
ACGGTCGA	0.0465
CGCATGCG	-0.0045
ACAGGGCC	-0.0849
CTAGGAAC	-0.0607
CTACAGCC	-0.142
AAAACTGC	0.0178
AACGTAAA	0.0325
ATAGGTCC	0.029
ATGATGTG	-0.0294
AGATTTTC	0.144
CGTCAGAC	-0.169
CACGGCAG	0.0946
AACGGCGC	-0.0504
GTCTTTTA	-0.072
CGTCCGAA	0.239
ACGCGTCT	-0.225
GACGTCAA	-0.0915
GCAAGTGC	-0.223
AACCCTAA	0.0271
AGCCCCTG	-0.408
ATAGAAGG	-0.104
AGTGCCCG	0.0695

Copied from the list:
PBM E-score, AACGGCGC is entered as -0.0504
PBM E-score, GACGTCAA is entered as -0.0915
PBM E-score, AACGTAAA is entered as 0.0325
PBM E-score, GCAAGTGC is entered as -0.223
PBM E-score, AACCCTAA is entered as 0.0271
